# In the supplement of paper PMC12823440, “Inhibitors supercharge kinase turnover through native proteolytic circuits” (Nature, 2025):
# Chains of the proteins cited; added tags and fusions are not shown.
# UniProt P42356, whole entry, looked up: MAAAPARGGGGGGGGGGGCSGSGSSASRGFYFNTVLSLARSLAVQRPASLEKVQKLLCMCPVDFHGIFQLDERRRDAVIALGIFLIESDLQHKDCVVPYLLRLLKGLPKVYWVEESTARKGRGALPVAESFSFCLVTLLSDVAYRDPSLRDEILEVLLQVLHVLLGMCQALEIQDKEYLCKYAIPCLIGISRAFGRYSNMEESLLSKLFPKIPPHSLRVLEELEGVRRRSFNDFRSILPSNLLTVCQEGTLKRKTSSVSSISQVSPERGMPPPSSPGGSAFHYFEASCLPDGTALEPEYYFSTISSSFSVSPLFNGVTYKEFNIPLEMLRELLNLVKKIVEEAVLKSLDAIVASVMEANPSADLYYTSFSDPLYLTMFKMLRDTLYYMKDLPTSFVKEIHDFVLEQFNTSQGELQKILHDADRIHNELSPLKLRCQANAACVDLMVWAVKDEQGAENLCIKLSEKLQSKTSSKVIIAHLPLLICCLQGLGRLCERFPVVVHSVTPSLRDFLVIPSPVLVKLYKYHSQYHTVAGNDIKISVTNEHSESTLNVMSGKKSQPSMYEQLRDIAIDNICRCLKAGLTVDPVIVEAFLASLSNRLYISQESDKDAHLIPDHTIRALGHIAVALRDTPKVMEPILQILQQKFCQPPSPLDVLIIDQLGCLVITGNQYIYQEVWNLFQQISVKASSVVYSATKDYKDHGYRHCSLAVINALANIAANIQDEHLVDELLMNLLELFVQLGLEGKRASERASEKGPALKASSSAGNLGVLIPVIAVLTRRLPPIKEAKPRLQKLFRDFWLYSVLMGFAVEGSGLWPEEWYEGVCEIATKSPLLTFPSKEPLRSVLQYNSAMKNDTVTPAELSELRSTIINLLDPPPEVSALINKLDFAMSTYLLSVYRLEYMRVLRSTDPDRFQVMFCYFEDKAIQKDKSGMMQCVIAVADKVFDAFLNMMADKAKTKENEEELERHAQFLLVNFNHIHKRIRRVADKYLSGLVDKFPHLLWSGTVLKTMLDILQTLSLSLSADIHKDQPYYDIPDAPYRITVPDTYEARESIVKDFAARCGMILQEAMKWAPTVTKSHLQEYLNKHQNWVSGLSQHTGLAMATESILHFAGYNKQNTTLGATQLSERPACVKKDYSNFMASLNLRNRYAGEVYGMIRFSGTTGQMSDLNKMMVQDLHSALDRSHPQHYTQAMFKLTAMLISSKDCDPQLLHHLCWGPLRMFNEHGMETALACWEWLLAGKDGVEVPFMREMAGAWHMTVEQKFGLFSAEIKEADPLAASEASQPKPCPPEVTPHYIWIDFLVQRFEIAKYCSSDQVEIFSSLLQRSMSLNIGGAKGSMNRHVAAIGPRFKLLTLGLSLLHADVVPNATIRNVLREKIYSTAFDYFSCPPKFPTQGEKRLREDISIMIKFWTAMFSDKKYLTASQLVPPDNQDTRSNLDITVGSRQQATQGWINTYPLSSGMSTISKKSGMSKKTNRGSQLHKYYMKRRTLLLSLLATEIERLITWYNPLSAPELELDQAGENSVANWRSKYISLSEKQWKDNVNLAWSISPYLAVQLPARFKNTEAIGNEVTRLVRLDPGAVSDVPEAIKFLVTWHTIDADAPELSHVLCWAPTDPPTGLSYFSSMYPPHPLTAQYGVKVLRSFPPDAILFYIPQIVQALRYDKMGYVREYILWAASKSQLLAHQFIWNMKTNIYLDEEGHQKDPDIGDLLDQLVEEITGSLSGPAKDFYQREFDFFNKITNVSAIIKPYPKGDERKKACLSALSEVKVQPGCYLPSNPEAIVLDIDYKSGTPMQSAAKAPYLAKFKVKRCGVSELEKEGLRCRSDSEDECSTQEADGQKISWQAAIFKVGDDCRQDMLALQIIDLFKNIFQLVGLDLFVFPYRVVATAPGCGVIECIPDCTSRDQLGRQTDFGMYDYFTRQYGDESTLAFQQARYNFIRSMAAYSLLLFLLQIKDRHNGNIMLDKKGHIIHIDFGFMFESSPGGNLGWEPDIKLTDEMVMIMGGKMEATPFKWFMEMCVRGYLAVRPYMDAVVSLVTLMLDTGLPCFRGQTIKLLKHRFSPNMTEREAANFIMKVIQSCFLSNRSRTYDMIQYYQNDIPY
# Structures can show the parent of a compound that is named as a salt. Some of the results follow. The calls rarely recur for the same compound in another form.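 In K562 cells expressing nanoluciferase-fused kinases, luminescence was recorded at 4 h intervals between 2 and 18 h, normalized as percent of control with DMSO at 100% and a positive control at 0%. A significant (2 sigma) signal drop marks a time point as decreased. The authors' rule for a hit is not shown and takes in more than the number of time points.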
# Molecular target: PIK4CA (UniProt P42356)
# Assay: kinase-Nluc reporter destabilization hit call (1 = scored as downregulated) (binary); higher = compound decreases kinase abundance
# Conditions: K562; 2-18 h
row,Structure (SMILES),kinase-Nluc reporter destabilization hit call
1,CCS(=O)(=O)c1ncc(Cl)c(C(=O)N(Cc2ccc(Cl)cc2)Cc2ccco2)n1 (2.5 µM),inactive: 0
2,Nc1cc(C(F)(F)F)c(-c2cc(N3CCOCC3)nc(N3CCOCC3)n2)cn1 [Buparlisib (Hydrochloride)] (2.5 µM),inactive: 0
3,COc1cc(Nc2ncc(F)c(Nc3ccc4c(n3)N(COP(=O)(O)O)C(=O)C(C)(C)O4)n2)cc(OC)c1OC [Fostamatinib Disodium] (10 µM),inactive: 0
4,CC(C)(O)CNc1ncc(-c2ccnc(Nc3ccnc(Cl)c3)n2)c(CC2CC2)n1 (2.5 µM),inactive: 0
5,O=Nc1c(-c2c(O)[nH]c3ccc(I)cc23)[nH]c2ccccc12 [5-Iodo-indirubin-3'-monoxime] (10 µM),inactive: 0
6,Cc1cc(Nc2ncnc3ccc(NC4=NC(C)(C)CO4)cc23)ccc1Oc1ccn2ncnc2c1 [Tucatinib] (2.5 µM),inactive: 0
7,CCS(=O)(=O)Nc1ccc2[nH]c(O)c(C(=Nc3ccc(CN4CCCCC4)cc3)c3ccccc3)c2c1 [Hesperadin] (2.5 µM),inactive: 0
8,COc1cc2c(cc1OC)CN(S(=O)(=O)c1ccc(OC)c(N3CCN(C(=O)c4ccc(F)cc4C(F)(F)F)CC3)c1)CC2 (10 µM),inactive: 0
9,O=C([O-])c1cc2ccccc2c(Cc2c(O)c(C(=O)[O-])cc3ccccc23)c1O.[Na+].[Na+] [Pamoic acid (disodium)] (10 µM),inactive: 0
10,Cn1cc(-c2ccc3nnc(Sc4ccc5ncccc5c4)n3n2)cn1 (10 µM),inactive: 0
11,Cc1cc(O)c2c(c1)C(=O)c1cc(O)cc(O)c1C2=O [Emodin] (10 µM),inactive: 0
12,COc1cc2c(N3CCN(C(=O)Nc4ccc(OC(C)C)cc4)CC3)ncnc2cc1OCCCN1CCCCC1 [Tandutinib (hydrochloride)] (10 µM),inactive: 0
13,CCC(C)N1c2ccccc2C(=O)N(C)c2cnc(Nc3ccc(C(=O)N4CCC(N5CCN(C)CC5)CC4)cc3OC)nc21 (centres undefined) (2.5 µM),inactive: 0
14,COc1cc(Nc2ncc(F)c(Nc3ccc4c(n3)NC(=O)C(C)(C)O4)n2)cc(OC)c1OC (10 µM),inactive: 0
15,NS(=O)(=O)c1ccc(-n2nc(C(F)(F)F)cc2-c2ccc(Cl)cc2)cc1 (10 µM),inactive: 0
16,Cc1c(NC(=O)c2cccn(-c3ccc(F)cc3)c2=O)ccc(Oc2ccnc(NC(=O)C3CC3)c2)c1C (2 µM),inactive: 0
17,c1ccc(-c2[nH]ncc2-c2ccnc3ccccc23)nc1 (10 µM),inactive: 0
18,CN(C)CCCOc1ccc(-c2ccc3ncc4c(c3c2)n(C2CCOCC2)c(=O)n4C)cn1 (2 µM),inactive: 0
19,COc1cc(Nc2ncc(F)c(Nc3ccc4c(n3)NC(=O)C(C)(C)O4)n2)cc(OC)c1OC [R406 (free base)] (10 µM),inactive: 0
20,OCCn1cc(-c2ccc3c(c2)CC/C3=N\O)c(-c2ccncc2)n1 (10 µM),inactive: 0

row,Structure (SMILES),kinase-Nluc reporter destabilization hit call
1,C[C@@H]1CCN(C(=O)CC#N)C[C@@H]1N(C)c1ncnc2[nH]ccc12 [Tofacitinib] (10 µM),inactive: 0
2,C[C@@H]1CCN(C(=O)CC#N)C[C@@H]1N(C)c1ncnc2[nH]ccc12 [Tofacitinib (citrate)] (10 µM),inactive: 0
3,FC(F)(c1ccc2ncccc2c1)c1nnc2ccc(-c3ccncc3)nn12 (10 µM),inactive: 0
4,O=C1NC(=O)/C(=C\c2cccc(C(F)(F)F)c2)S1 (2.5 µM),inactive: 0
5,N#CCC1CCN(c2nc(Nc3ccc(N4CCC(O)CC4)cc3)c3c(=O)[nH]ncc3n2)CC1 [Gusacitinib] (10 µM),inactive: 0
6,Nc1ncnc2c1c(-c1cccc(OCc3ccccc3)c1)cn2C1CC(CN2CCC2)C1 (centres undefined) (2.5 µM),inactive: 0
7,CCNc1nc(Nc2cc(F)c(C(=O)N3CCOCC3)cc2OC)ncc1C(F)(F)F [GNE-7915 (tosylate)] (10 µM),inactive: 0
8,Cn1cnc2c(F)c(Nc3ccc(Br)cc3Cl)c(C(=O)NOCCO)cc21 [Selumetinib] (10 µM),inactive: 0
9,CCN1CCN(Cc2ccc(-c3cc4c(N[C@H](C)c5ccccc5)ncnc4[nH]3)cc2)CC1 (2.5 µM),inactive: 0
10,O=C(N/N=C/c1coc2ccccc2c1=O)c1cccnc1 (10 µM),inactive: 0
11,O=Nc1c(-c2c(O)[nH]c3ccc(F)cc23)[nH]c2ccccc12 [5'-Fluoroindirubinoxime] (10 µM),inactive: 0
12,CC(=O)NC1CC(n2cnc(NC(=O)Cc3ccc4ccccc4c3)c2)C1 (centres undefined) (10 µM),inactive: 0
13,O=C(CSC1=NCCN1)NC1CCCCCC1 [ICCB-19 (hydrochloride)] (2.5 µM),inactive: 0
14,N#Cc1c(C2CCNCC2)cc(-c2c(O)cccc2OCC2CC2)nc1N [ACHP (Hydrochloride)] (10 µM),inactive: 0
15,CCOC(=O)N1CCN(C(=O)[C@H](Cc2cccc(C(=N)N)c2)NS(=O)(=O)c2c(C(C)C)cc(C(C)C)cc2C(C)C)CC1 (10 µM),inactive: 0
16,CN1CCN(c2cnc3c(C4CCN(C(=O)c5ccc(OC(F)(F)F)cc5N)CC4)ncnc3c2)CC1 (10 µM),inactive: 0
17,Cc1[nH]c(/C=C2\C(=O)Nc3ccccc32)c(C)c1CCC(=O)O [Orantinib] (10 µM),inactive: 0
18,Cn1nccc1Nc1nccc(-c2ccn([C@H](CO)c3ccc(Cl)c(F)c3)c(=O)c2)n1 [Ravoxertinib hydrochloride] (10 µM),inactive: 0
19,CCCCCCCCCCCCC/C=C/[C@@H](O)[C@@H](N)CO [D-erythro-Sphingosine] (2.5 µM),inactive: 0

# Some values from the results shown:
# Entry of CN1CCN(c2cnc3c(C4CCN(C(=O)c5ccc(OC(F)(F)F)cc5N)CC4)ncnc3c2)CC1 (10 µM) under kinase-Nluc reporter destabilization hit call: inactive: 0
# Entry of N#Cc1c(C2CCNCC2)cc(-c2c(O)cccc2OCC2CC2)nc1N [ACHP (Hydrochloride)] (10 µM) under kinase-Nluc reporter destabilization hit call: inactive: 0
